In experiment [1] the test system is hAMSC donor 1. Briefly: Hoechst total cell count ratio vs vehicle control; higher = more cells (less toxicity).
The subject of experiment [2] is hAMSC donor 2. The experiment is described as above.
In experiment [3] the test system is hAMSC donor 1. Briefly: transgenic luciferase activity (RLU/mg protein) fold change vs vehicle control (ratio); higher = more transgene expression.
Experiment [4] concerns hAMSC donor 2. Described as above.
The test system of experiment [5] is hAMSC donor 1. Briefly: transfection efficiency (EGFP+ cells / Hoechst count) fold change vs vehicle control (ratio); hAMSC are human adipose-derived mesenchymal stem cells given an EGFP-luciferase plasmid by lipofection; higher = enhanced transfection.
The subject of experiment [6] is hAMSC donor 2. Described as above.
The mark [7] stands for this setting: priming compound concentration 0.2 µM.
Where [8] appears, read: priming compound concentration 1.7 µM.
[9] abbreviates: priming compound concentration 13 µM.

Structures can show the parent of a compound that is named as a salt. ± gives the standard deviation of the averaged measurements. The list shows a part of the results. The data scatter; read single values as rough.

`COc1ccc(CN2CCN(C(c3ccc(F)cc3)c3ccc(F)cc3)CC2)c(OC)c1OC` [Lomerizine dihydrochloride]: the “Hoechst total cell count ratio” value was found to be 1.1 ± 0.11 in the experiment with hAMSC donor 1 [1] (setting [7]); 1.13 ± 0.15 with hAMSC donor 1 [1] (setting [8]); 1.14 ± 0.088 in the experiment on hAMSC donor 1 [1] (setting [9]); 1.32 ± 0.56 in the experiment with hAMSC donor 2 [2] (setting [7]); 1.64 ± 0.53 with hAMSC donor 2 [2] (setting [8]); 3.89 ± 0.54 in the experiment with hAMSC donor 2 [2] (setting [9]). Also, the transgenic luciferase activity in the experiment with hAMSC donor 1 [3] (setting [8]) stood at 1.81 ± 1.1; in the experiment on hAMSC donor 2 [4] (setting [7]) it was 0.488 ± 0.088; with hAMSC donor 2 [4] (setting [8]), 0.417 ± 0.034; in the experiment with hAMSC donor 2 [4] (setting [9]), 0.104 ± 0.03. Moreover, the transfection efficiency was determined as 1.31 ± 0.23 with hAMSC donor 1 [5] (setting [7]); 0.956 ± 0.98 in the experiment on hAMSC donor 1 [5] (setting [8]); 0.719 ± 0.3 in the experiment with hAMSC donor 1 [5] (setting [9]); 1.29 ± 0.31 in the experiment on hAMSC donor 2 [6] (setting [7]); 1.01 ± 0.18 with hAMSC donor 2 [6] (setting [8]); 0.803 ± 0.13 in the experiment with hAMSC donor 2 [6] (setting [9]).
Turning to `Cc1cnc(NC(=O)C2=C(O)c3ccccc3S(=O)(=O)N2C)s1` [Meloxicam], the “Hoechst total cell count ratio” value in the experiment on hAMSC donor 1 [1] (setting [7]) was 1.21 ± 0.17; in the experiment on hAMSC donor 1 [1] (setting [8]) it was 1.15 ± 0.33; with hAMSC donor 1 [1] (setting [9]), 1.34 ± 0.064; in the experiment with hAMSC donor 2 [2] (setting [7]) it was 1.03 ± 0.069; in the experiment with hAMSC donor 2 [2] (setting [8]) it was 1.25 ± 0.16; in the experiment on hAMSC donor 2 [2] (setting [9]) it was 1.12 ± 0.11. Besides, the transgenic luciferase activity with hAMSC donor 1 [3] (setting [9]) came out at 0.512 ± 0.031; in the experiment on hAMSC donor 2 [4] (setting [7]) it was 0.681 ± 0.069; in the experiment on hAMSC donor 2 [4] (setting [8]), 0.967 ± 0.049; in the experiment with hAMSC donor 2 [4] (setting [9]), 0.46 ± 0.11. Also, the transfection efficiency stood at 1 ± 0.44 in the experiment with hAMSC donor 1 [5] (setting [7]); 1.6 ± 0.31 with hAMSC donor 1 [5] (setting [8]); 1.09 ± 0.079 in the experiment with hAMSC donor 1 [5] (setting [9]); 0.974 ± 0.079 in the experiment on hAMSC donor 2 [6] (setting [7]); 0.957 ± 0.047 in the experiment on hAMSC donor 2 [6] (setting [8]); 0.87 ± 0.16 in the experiment with hAMSC donor 2 [6] (setting [9]).
With `CC(CN1c2ccccc2Sc2ccccc21)N(C)C` (configuration not stated) [Promethazine hydrochloride], the “Hoechst total cell count ratio” value with hAMSC donor 1 [1] (setting [7]) was 1.2 ± 0.18; with hAMSC donor 1 [1] (setting [8]) it was 1.66 ± 0.088; with hAMSC donor 1 [1] (setting [9]) it was 1.06 ± 0.023; in the experiment with hAMSC donor 2 [2] (setting [7]) it was 1.13 ± 0.11; in the experiment with hAMSC donor 2 [2] (setting [8]) it was 1.19 ± 0.1; in the experiment with hAMSC donor 2 [2] (setting [9]), 1.42 ± 0.11. In addition, the transgenic luciferase activity stood at 0.882 ± 0.22 in the experiment on hAMSC donor 1 [3] (setting [9]), 0.612 ± 0.33 with hAMSC donor 2 [4] (setting [7]), 0.64 ± 0.06 with hAMSC donor 2 [4] (setting [8]) and 0.459 ± 0.03 with hAMSC donor 2 [4] (setting [9]). Further, the transfection efficiency is 0.964 ± 0.15 with hAMSC donor 1 [5] (setting [7]); 0.849 ± 0.3 with hAMSC donor 1 [5] (setting [8]); 1.33 ± 0.43 with hAMSC donor 1 [5] (setting [9]); 1.11 ± 0.14 with hAMSC donor 2 [6] (setting [7]); 0.895 ± 0.13 in the experiment with hAMSC donor 2 [6] (setting [8]); 0.718 ± 0.045 with hAMSC donor 2 [6] (setting [9]).
As to `CN1C(C(=O)Nc2ccccn2)=C(O)c2ccccc2S1(=O)=O` [Piroxicam], the “Hoechst total cell count ratio” value with hAMSC donor 1 [1] (setting [7]) was 1.03 ± 0.096; with hAMSC donor 1 [1] (setting [8]) it was 0.797 ± 0.088; with hAMSC donor 1 [1] (setting [9]) it was 0.635 ± 0.063; with hAMSC donor 2 [2] (setting [7]), 1.66 ± 0.79; in the experiment with hAMSC donor 2 [2] (setting [8]), 1.1 ± 0.066; in the experiment on hAMSC donor 2 [2] (setting [9]), 0.782 ± 0.25. The transgenic luciferase activity turned out to be 4.06 ± 1.3 in the experiment on hAMSC donor 1 [3] (setting [8]), 0.703 ± 0.17 in the experiment on hAMSC donor 2 [4] (setting [7]), 0.475 ± 0.031 with hAMSC donor 2 [4] (setting [8]) and 0.0793 ± 0.055 in the experiment on hAMSC donor 2 [4] (setting [9]). The transfection efficiency in the experiment with hAMSC donor 1 [5] (setting [7]) worked out at 1.45 ± 0.18; in the experiment with hAMSC donor 1 [5] (setting [8]), 2.27 ± 0.21; in the experiment with hAMSC donor 1 [5] (setting [9]), 2.13 ± 0.47; in the experiment with hAMSC donor 2 [6] (setting [7]), 1.24 ± 0.017; in the experiment with hAMSC donor 2 [6] (setting [8]), 0.98 ± 0.05; in the experiment with hAMSC donor 2 [6] (setting [9]), 0.787 ± 0.12.
`Nc1cc(N2CCCCC2)nc(N)[n+]1[O-]` [Minoxidil]: the “Hoechst total cell count ratio” value was found to be 1.28 ± 0.057 in the experiment with hAMSC donor 1 [1] (setting [7]); 1.66 ± 0.053 in the experiment with hAMSC donor 1 [1] (setting [8]); 1.27 ± 0.079 in the experiment with hAMSC donor 1 [1] (setting [9]); 1.07 ± 0.044 with hAMSC donor 2 [2] (setting [7]); 1.09 ± 0.035 with hAMSC donor 2 [2] (setting [8]); 1.21 ± 0.15 in the experiment on hAMSC donor 2 [2] (setting [9]). In addition, the transgenic luciferase activity came out at 0.622 ± 0.42 in the experiment with hAMSC donor 1 [3] (setting [9]), 0.811 ± 0.19 in the experiment with hAMSC donor 2 [4] (setting [7]), 0.89 ± 0.077 in the experiment on hAMSC donor 2 [4] (setting [8]) and 0.763 ± 0.15 in the experiment with hAMSC donor 2 [4] (setting [9]). In addition, the transfection efficiency with hAMSC donor 1 [5] (setting [7]) came to 0.961 ± 0.065; with hAMSC donor 1 [5] (setting [8]) it was 1.1 ± 0.086; in the experiment on hAMSC donor 1 [5] (setting [9]) it was 0.89 ± 0.25; with hAMSC donor 2 [6] (setting [7]), 1.17 ± 0.1; in the experiment on hAMSC donor 2 [6] (setting [8]) it was 1.05 ± 0.049; in the experiment on hAMSC donor 2 [6] (setting [9]), 0.871 ± 0.085.
In the case of `C[C@@H]1C[C@H]2[C@@H]3C[C@H](F)C4=CC(=O)C(Cl)=C[C@]4(C)[C@@]3(F)[C@@H](O)C[C@]2(C)[C@@]1(O)C(=O)CO` [Halometasone monohydrate], the “Hoechst total cell count ratio” value was 1.47 ± 0.2 with hAMSC donor 1 [1] (setting [7]); 1.29 ± 0.14 with hAMSC donor 1 [1] (setting [8]); 1.1 ± 0.15 in the experiment on hAMSC donor 1 [1] (setting [9]); 1.72 ± 0.09 with hAMSC donor 2 [2] (setting [7]); 1.82 ± 0.086 in the experiment on hAMSC donor 2 [2] (setting [8]); 3.37 ± 0.31 in the experiment with hAMSC donor 2 [2] (setting [9]). In addition, the transgenic luciferase activity with hAMSC donor 1 [3] (setting [8]) came out at 13.8 ± 13; in the experiment on hAMSC donor 2 [4] (setting [7]), 3.04 ± 0.38; in the experiment with hAMSC donor 2 [4] (setting [8]), 4.42 ± 0.28; in the experiment on hAMSC donor 2 [4] (setting [9]), 0.654 ± 0.25. Also, the transfection efficiency in the experiment on hAMSC donor 1 [5] (setting [7]) was determined as 1.18 ± 0.36; in the experiment on hAMSC donor 1 [5] (setting [8]), 1.41 ± 0.6; in the experiment with hAMSC donor 1 [5] (setting [9]), 1.46 ± 0.26; with hAMSC donor 2 [6] (setting [7]) it was 2.03 ± 0.084; in the experiment on hAMSC donor 2 [6] (setting [8]), 1.74 ± 0.085; in the experiment with hAMSC donor 2 [6] (setting [9]) it was 1.02 ± 0.02.
As for `COc1cc(CNC(=O)CCCC/C=C\C(C)C)ccc1O` [Zucapsaicin], the “Hoechst total cell count ratio” value in the experiment on hAMSC donor 1 [1] (setting [7]) stood at 1.13 ± 0.26; in the experiment with hAMSC donor 1 [1] (setting [8]), 1.17 ± 0.29; in the experiment with hAMSC donor 1 [1] (setting [9]), 0.986 ± 0.076; in the experiment with hAMSC donor 2 [2] (setting [7]), 0.61 ± 0.087; in the experiment on hAMSC donor 2 [2] (setting [8]) it was 0.887 ± 0.12; with hAMSC donor 2 [2] (setting [9]) it was 1.31 ± 0.49. For the same compound, the transgenic luciferase activity with hAMSC donor 1 [3] (setting [8]) is 2.14 ± 0.79; with hAMSC donor 2 [4] (setting [7]), 0.828 ± 0.067; in the experiment on hAMSC donor 2 [4] (setting [8]), 1.48 ± 0.16; in the experiment with hAMSC donor 2 [4] (setting [9]), 0.233 ± 0.025. The transfection efficiency with hAMSC donor 1 [5] (setting [7]) was 0.943 ± 0.12; in the experiment on hAMSC donor 1 [5] (setting [8]), 1.17 ± 0.41; in the experiment with hAMSC donor 1 [5] (setting [9]), 1.17 ± 0.43; in the experiment with hAMSC donor 2 [6] (setting [7]) it was 1.31 ± 0.39; in the experiment on hAMSC donor 2 [6] (setting [8]) it was 1.3 ± 0.15; in the experiment with hAMSC donor 2 [6] (setting [9]), 1.08 ± 0.12.

The record behind these values is the supplement of paper PMC7238544.
